# Experimental data taken from PubChem BioAssay AID504467 (National Center for Advancing Translational Sciences (NCATS), 2011).
# Out of some 330,000 compounds screened, about 7,700 (2.3%) were called active. The inconclusive results got no clear call from the source; some entries with a clear call stand among them for comparison. Calls follow the shape of the dose curve; as a rule, active = well fitted inhibition curve with a large enough effect; inconclusive = small, poorly fitted or top-dose-only effect, or effect the other way; inactive = flat fitted curve, though single readings scatter. Potencies beside an inconclusive call are fits to weak or partial responses and may not hold up.
# Assay: qHTS screen for small molecules that inhibit ELG1-dependent DNA repair in human embryonic kidney (HEK293T) cells expressing luciferase-tagged ELG1; also: nearly all actives have a fitted effect of over 55% in size
# Conditions: HEK293T ELG1-luciferase reporter, luminescence, 16 h, DNA damage induced by 5-fluorouridine; activity change, negative = inhibition: at 46.1 µM (top of the series)
# In short: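 In this reporter screen, reduction of luminescence relative to DMSO vehicle indicated activity. Compounds and 5-fluorouridine were added together to 2,000 cells per well, incubated for 16 hr at 37 °C, then developed with ONE-Glo.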
# % is scaled to controls: 0 for no effect and ±100 for the full control effect; potency is read from the fitted curve at half-maximal effect.
Structure (SMILES),"activity change, negative = inhibition",Potency
OCCN(Cc1ccccc1)Cc1cccc(Cl)c1Cl,inconclusive: 16.4% [activator],
Oc1ccc(-c2csc(Nc3ncccn3)n2)cc1O,,"inconclusive: 3.26 µM [activator, full curve]"
C=CCOc1ccccc1CN1CCCCCC1,,inactive
Cc1cc(NC(=O)COC(=O)C2CC(=O)N(c3ccccc3Cl)C2)no1 (stereo not given),,inactive
O=C(Cc1ccc(F)cc1)NCC1CCCO1 (stereo not given),,inactive
O=C(NC(=S)Nc1ccc(Cl)cn1)c1cccs1,,"inconclusive: 8.2 µM [activator, partial curve]"
CC(=O)c1sc(-c2ccc(F)cc2)cc1NS(=O)(=O)c1ccc(C)cc1,,active: 18.3 µM
C/C(=N/NC(=O)Cc1cccs1)c1ccco1,,inactive
CCOC(=O)C1CCN(C(=O)Cn2nc(C)n3nc(-c4ccc(OC)cc4)cc3c2=O)CC1,,"inconclusive: 25.9 µM [inhibitor, partial curve, poor fit]"
Cc1ccc(F)cc1NC(=O)C1C2CCC(O2)C1C(=O)O (stereo not given),,"inconclusive: 20.6 µM [activator, partial curve]"
CCc1nc(N2CCN(C(C)=O)CC2)c(C#N)c2c1COC(C)(C)C2,,inactive
O=c1c(/C=N/O)c(Nc2ccccc2)nc2ccccn12,,"inconclusive: 7.94 µM [inhibitor, partial curve, poor fit]"
COc1ccc(S(=O)(=O)N2CCCC(C(=O)Nc3ccc(OC)c(OC)c3)C2)cc1 (stereo not given),,"inconclusive: 35.5 µM [inhibitor, single point]"
Nc1nc2sc3c(c2cc1C(=O)N1CCOCC1)CCCC3,,"inconclusive: 14.6 µM [activator, single point]"
CCOC(=O)N1CCN(C(=O)CSc2nnc(-c3ccccc3OC)o2)CC1,,inactive
COc1ccc(C(=O)CC(=O)C(=O)Nc2ccc(OC)c(Cl)c2)cc1,,inactive
O=C(Nc1ccccc1Cl)c1ccc(-n2cccn2)c([N+](=O)[O-])c1,,"inconclusive: 29.1 µM [inhibitor, single point]"
CCOc1ccc(NC(=O)CN(C)C(=O)c2ccc3nc(CC)c(CC)nc3c2)cc1OCC,,inactive
O=C(c1ccc(S(=O)(=O)N2CCCCC2)cc1)N1CCN(CCN2C(=O)c3cccc4cccc(c34)C2=O)CC1,,active: 3.26 µM
CCN1C(=O)[C@H]2[C@@H](c3ccc(-c4ccc(Cl)c(Cl)c4)c(OC)c3)N[C@@](C)(C(=O)OC)[C@H]2C1=O,,inactive
CC1CCCCN1CCNC(=O)c1cc2c(=O)n(C)c3ccccc3c2n1C (stereo not given),,inactive
COC(=O)c1[nH]c2cccc(C)c2c1NC(=O)CN1CCCc2ccccc21,,active: 18.4 µM
CCN(CC(=O)Nc1ccc(NC(C)=O)cc1)C(=O)C1CCC1,,"inconclusive: 23.1 µM [activator, single point]"
C=CCN(c1ccccc1)S(=O)(=O)c1cccc(C(=O)NNC(=O)c2ccccc2O)c1,,"inconclusive: 5.17 µM [inhibitor, single point]"

# Record cards (already shown).
# COC(=O)c1[nH]c2cccc(C)c2c1NC(=O)CN1CCCc2ccccc21 as listed: Potency: active: 18.4 µM
# Cc1ccc(F)cc1NC(=O)C1C2CCC(O2)C1C(=O)O (stereo not given) as listed: Potency: inconclusive: 20.6 µM [activator, partial curve]

# (more compounds)

Structure (SMILES),"activity change, negative = inhibition",Potency
COC(=O)C1=C(C)N(Cc2ccccc2)C(=NCC(C)C)N[C@H]1c1ccccc1,,"inconclusive: 0.0206 µM [inhibitor, full curve, poor fit]"
O=C(NC1CCCC1)C1CCC(CNS(=O)(=O)c2cccs2)CC1 (stereo not given),,inactive
O=C(COC(=O)Cc1c(Cl)cccc1Cl)Nc1ccc(OC(F)(F)F)cc1,,"inconclusive: 5.17 µM [inhibitor, partial curve]"
CCN(C(=O)COC(=O)C1CCN(S(=O)(=O)c2cccs2)CC1)c1ccccc1,,inactive
CCOC(=O)NC(=O)COC(=O)Cc1cc(OC)c(OC)c(OC)c1,,"inconclusive: 18.4 µM [inhibitor, partial curve, poor fit]"
C/C(N)=C(/C#N)C(=O)COC(=O)c1ccc(C)c(S(=O)(=O)N2CCCCC2)c1,,"inconclusive: 20.6 µM [inhibitor, single point]"
O=C(NCCCCCCNC(=O)c1cccs1)c1cccs1,,inactive
CCCOc1cccc(-c2cc(C(=O)N/N=C/c3ccccn3)c3ccccc3n2)c1,,inactive
Cn1c(N)c(C(=O)COc2ccc(C#N)cc2)c(=O)n(C)c1=O,,inactive
COc1cc(C(=O)N2CCc3ccccc32)cc(OC)c1OC,,inactive
COc1ccc(C(=O)NCCc2nnc(SCC(=O)Nc3ccccc3)n2C)cc1,,"inconclusive: 23.1 µM [activator, single point]"
O=C(O)CN1C(=O)/C(=C\C(Br)=C\c2ccccc2)SC1=S,,"inconclusive: 20.6 µM [activator, partial curve]"
COc1ccc(C(=O)OCC(=O)NC23CC4CC(CC(C4)C2)C3)c(OC)c1OC,,"inconclusive: 29.1 µM [inhibitor, single point]"
Cc1ccnc(SCC(=O)N2CCN(C(c3ccccc3)c3ccccc3)CC2)n1,,"inconclusive: 25.9 µM [inhibitor, partial curve, poor fit]"
CCS(=O)(=O)c1nc(S(=O)(=O)c2ccc(Cl)cc2)c(N2CCc3ccccc3C2)s1,,"inconclusive: 6.51 µM [inhibitor, partial curve, poor fit]"
Cc1cc(C)cc(NC(=O)C2CCN(S(=O)(=O)c3ccc4c(c3)NC(=O)C(C)S4)CC2)c1 (stereo not given),,"inconclusive: 25.9 µM [inhibitor, single point]"
CC1=C(C(=O)Nc2ccc([N+](=O)[O-])cc2)C(c2cccc(C(F)(F)F)c2)NC(=S)N1c1ccccc1 (stereo not given),,"inconclusive: 29.1 µM [inhibitor, single point]"
CCSc1nc2ccccc2n1C(=O)/C=C\c1ccc(OC)c(OC)c1,,"inconclusive: 14.6 µM [inhibitor, partial curve, poor fit]"
CCSc1nnc(NC(=O)c2ccccn2)s1,,"inconclusive: 11.2 µM [activator, partial curve, poor fit]"
COc1ccc(C)cc1Nc1nc(-c2c(C)[nH]c3ccccc23)cs1,,inactive
COc1ccc(CN(C(=S)Nc2ccccc2)C2CC(=O)N(c3ccccc3)C2=O)cc1 (stereo not given),,"inconclusive: 20.6 µM [inhibitor, single point]"
CCOc1cc(CNCCSc2nnnn2C)cc(Br)c1OCc1ccc(F)cc1,,inactive
Cn1nccc1CNC(=O)c1c(Cl)cnn1C,,inactive
O=C(Nc1ccccc1)Nc1nnc(/C=C/c2ccccc2Cl)s1,,inactive

Structure (SMILES),"activity change, negative = inhibition",Potency
CC(C)C(=O)N1CCN(c2nc3ccc(Cl)cc3s2)CC1,,"inconclusive: 14.6 µM [activator, partial curve]"
CCOC(=O)C1(CC2CC2)CCN(C(=O)c2cc(C)nc3ccc(CC)cc23)CC1,,"inconclusive: 20.6 µM [inhibitor, single point]"
CCc1ccc(-c2cc3c(=O)n(CC(=O)N4CCCCCC4)nc(C)n3n2)cc1,,inactive
C#CCOCCOCCOCCNc1nc(N2CCN(C(=O)CCCCCCCCCCNC(=O)[C@H]([C@@H](C)CC)n3cc(CCCCN=C(N)N)nn3)CC2)nc(N2CCN(C(=O)CCCCCCCCCCNC(=O)[C@H](CO)n3cc(CCCSC)nn3)CC2)n1,,"inconclusive: 22.4 µM [inhibitor, single point]"
COc1cc(CCCN2C(=O)C(=O)NC[C@@H]2Cc2ccc(O)cc2)cc(OC)c1OC,,inactive
O=C(COc1ccc(F)c(Cl)c1)Nc1ccc(N2CCOCC2)cc1,,inactive
Cn1c(=O)oc2cc(S(=O)(=O)NCc3ccncc3)ccc21,,"inconclusive: 8.2 µM [inhibitor, partial curve]"
Cc1ccc(NC(=O)CN2C(=O)N/C(=C/c3ccc(N4CCOCC4)cc3)C2=O)cc1,,"inconclusive: 20.6 µM [activator, partial curve, poor fit]"
O=C(COc1ccc(Cl)cc1)Nc1ncc([N+](=O)[O-])s1,,"inconclusive: 1.3 µM [activator, partial curve]"
CCOc1cc(C(=S)N2CCOCC2)ccc1OS(=O)(=O)c1ccccc1,,"inconclusive: 14.6 µM [inhibitor, partial curve, poor fit]"
O=C(Nc1nc2c(s1)CCCC2)c1cccnc1,,"inconclusive: 5.17 µM [activator, partial curve]"
COc1ccc(NS(=O)(=O)c2cc(NC(=O)c3ccccc3)ccc2N2CCOCC2)cc1,,"inconclusive: 7.3 µM [inhibitor, single point]"
O=C(Cc1ccsc1)Nc1ccc(Cl)cc1Cl,,inactive
Cc1c(C(=O)NCCS(=O)(=O)N2CCN(c3ccccc3F)CC2)cccc1[N+](=O)[O-],,active: 14.6 µM
CC(=O)N(Cc1cc2ccccc2[nH]c1=O)c1ccc(C)cc1,,inactive
CCN(CC)C(=O)[C@H]1C[C@H](CC(=O)NCc2cccc(C(F)(F)F)c2)C(=O)N2CCc3c([nH]c4cc(-c5ccco5)ccc34)[C@]12C,,"inconclusive: 18.3 µM [inhibitor, single point]"
C/C(=N\NC(=O)c1cc2c(s1)CCC(C)C2)c1ccc[nH]1 (stereo not given),,"inconclusive: 4.11 µM [activator, partial curve]"
O=C(C1CCC(N2C(=O)C3CC=CCC3C2=O)CC1)N1CCCCC1 (stereo not given),,inactive
O=c1[nH]c(C2CCN(S(=O)(=O)c3ccccc3C(F)(F)F)CC2)nc2c1nnn2Cc1ccccc1,,"inconclusive: 29.1 µM [inhibitor, single point]"
O=C1C=CN2CCCCC2CC1 (stereo not given),,"inconclusive: 18.3 µM [inhibitor, single point]"
O=C(Nc1ccc2c(c1)OCO2)c1ccc(Br)o1,,"inconclusive: 9.2 µM [activator, partial curve]"
C[n+]1ccc(/C=N/Nc2nc(Cl)c(C#N)c(Cl)c2Cl)cc1,,"inconclusive: 36.6 µM [activator, partial curve, poor fit]"

# Looked up above.
# In Potency, C/C(=N\NC(=O)c1cc2c(s1)CCC(C)C2)c1ccc[nH]1 (stereo not given) has the entry inconclusive: 4.11 µM [activator, partial curve]
# In Potency, O=C(Nc1ccc2c(c1)OCO2)c1ccc(Br)o1 has the entry inconclusive: 9.2 µM [activator, partial curve]
